Source: doi:10.1371/journal.pone.0140310, primary screening data, rounded.

Drugs:
lenalidomide: Nc1cccc2c1CN(C1CCC(=O)NC1=O)C2=O (stereo not given) at 5 µM
PLX4720: CCCS(=O)(=O)Nc1ccc(F)c(C(=O)c2c[nH]c3ncc(Cl)cc23)c1F at 0.4 µM
vatalanib: Clc1ccc(Nc2nnc(Cc3ccncc3)c3ccccc23)cc1 at 10 µM
lapatinib: CS(=O)(=O)CCNCc1ccc(-c2ccc3ncnc(Nc4ccc(OCc5cccc(F)c5)c(Cl)c4)c3c2)o1 at 4 µM
selumetinib: Cn1cnc2c(F)c(Nc3ccc(Br)cc3Cl)c(C(=O)NOCCO)cc21 at 0.075 µM
NVP-TAE684: COc1cc(N2CCC(N3CCN(C)CC3)CC2)ccc1Nc1ncc(Cl)c(Nc2ccccc2S(=O)(=O)C(C)C)n1 at 0.4 µM
temozolomide: Cn1nnc2c(C(N)=O)ncn2c1=O at 10 µM
tanespimycin: C=CCNC1=C2C[C@@H](C)C[C@H](OC)[C@H](O)[C@@H](C)/C=C(\C)[C@H](OC(N)=O)[C@@H](OC)/C=C\C=C(/C)C(=O)NC(=CC1=O)C2=O at 0.01 µM
STA-4783: CN(NC(=O)CC(=O)NN(C)C(=S)c1ccccc1)C(=S)c1ccccc1 at 0.03 µM
GSK650394: O=C(O)c1ccc(-c2c[nH]c3ncc(-c4ccccc4)cc23)cc1C1CCCC1 at 0.8 µM
KU-0063794: COc1ccc(-c2ccc3c(N4CCOCC4)nc(N4C[C@@H](C)O[C@@H](C)C4)nc3n2)cc1CO at 0.1 µM
FK866: O=C(/C=C/c1cccnc1)NCCCCC1CCN(C(=O)c2ccccc2)CC1 at 0.05 µM
crizotinib: C[C@@H](Oc1cc(-c2cnn(C3CCNCC3)c2)cnc1N)c1c(Cl)ccc(F)c1Cl at 1 µM
TCS401: O=C(O)C(=O)Nc1sc2c(c1C(=O)O)CCNC2 at 8.33 µM
sunitinib: CCN(CC)CCNC(=O)c1c(C)[nH]c(/C=C2\C(=O)Nc3ccc(F)cc32)c1C at 2 µM

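Human melanoma cell lines in 1,536-well plates were treated with a pair of drugs for 72 h, then fixed, stained and imaged. The read-out is cell count (nuclei) in % of the DMSO control; lower values mean stronger growth inhibition or killing. Concentrations were fixed for each drug; these are the higher of two levels. These are primary screening values without error estimates.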 An unselected part of the screen is shown.

| Pair | COLO 829 | COLO 800 | WM451Lu | WM3619 | COLO 792 |
|---|---|---|---|---|---|
| crizotinib + vatalanib | 45.9 | 27.3 | 59.3 | 58.0 | 48.9 |
| selumetinib + tanespimycin | 69.8 | 95.5 | 55.4 | 46.4 | 45.7 |
| TCS401 + temozolomide | 88.8 | 166 | 95.0 | 83.9 | 90.9 |
| PLX4720 + KU-0063794 | 69.8 | 111 | 68.1 | 71.6 | 80.1 |
| tanespimycin + KU-0063794 | 91.1 | 68.0 | 79.8 | 71.5 | 79.6 |
| lenalidomide + selumetinib | 88.6 | 106 | 74.9 | 49.2 | 74.5 |
| FK866 + crizotinib | 56.7 | 28.3 | 68.4 | 77.5 | 38.4 |
| STA-4783 + FK866 | 62.8 | 10.1 | 97.5 | 8.6 | 7.3 |
| KU-0063794 + vatalanib | 63.4 | 68.7 | 110 | 60.2 | 50.1 |
| PLX4720 + lapatinib | 67.5 | 44.0 | 62.3 | 55.2 | 65.4 |
| sunitinib + TCS401 | 105 | 51.2 | 75.9 | 89.7 | 65.6 |
| STA-4783 + lenalidomide | 53.2 | 2.2 | 78.2 | 10.5 | 15.2 |
| GSK650394 + KU-0063794 | 79.7 | 63.0 | 70.6 | 55.8 | 68.0 |
| sunitinib + KU-0063794 | 86.5 | 50.7 | 50.6 | 79.5 | 31.2 |
| sunitinib + NVP-TAE684 | 115 | 49.3 | 68.0 | 94.7 | 52.6 |
| selumetinib + temozolomide | 87.1 | 98.8 | 59.7 | 67.0 | 71.8 |
| PLX4720 + NVP-TAE684 | 62.9 | 41.6 | 57.6 | 89.9 | 90.6 |
| FK866 + NVP-TAE684 | 74.6 | 17.8 | 102 | 64.8 | 39.0 |
| vatalanib + sunitinib | 83.1 | 45.2 | 52.5 | 62.1 | 28.8 |
| STA-4783 + temozolomide | 43.5 | 20.7 | 96.1 | 8.5 | 17.4 |
| KU-0063794 + temozolomide | 74.9 | 112 | 88.8 | 55.5 | 73.6 |
| lapatinib + STA-4783 | 41.2 | 14.0 | 59.2 | 2.9 | 20.1 |